Measured data: PubChem BioAssay AID743454 (Peter MacCallum Cancer Centre, 2014)

- Screen: 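Search for knock-downs that restore vorinostat killing in resistant colon cancer cells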 (primary screen)
- Cells: human HCT116-VR colon cancer cells, selected for vorinostat resistance
- Reagent: siRNA pool against human genes, 40 nM siRNA pool
- Duration: vorinostat for 24 h, read-out about 72 h after transfection
- Challenge: vorinostat at 2.5 µM final
- Detection: 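Two measures, CellTiter-Fluor viability and luminescent caspase 3/7 activity, each as fold change against same-plate mock wells, mean of duplicates, then screen-wide robust z-score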
- Reading the numbers: viability robust z-score: higher = more viable cells than screen typical; caspase robust z-score: higher = more caspase 3/7 activity than screen typical
- Call rule: 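a knock-down is a hit when classed RV1 or RV2 for lowered viability, or CA1 or CA2 for caspase activation; those lethal without drug were dropped; hits were retested singly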
Here is a random part of about 18,000 reagents tested. Of all reagents, 450 (2.5%) got an active call. 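Single biological run; no consistent viability z cut-off exists, so the class columns, not z-scores, define the calls.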 A number with no mark means an inactive call.

no.	gene	viability hit class	caspase hit class	viability robust z-score	caspase robust z-score
1	C17orf78 (chromosome 17 open reading frame 78)	no change	no change	0.44	-0.34
2	C14orf181 (retired record)	no change	no change	1.4	1.33
3	ITGAL (integrin subunit alpha L)	no change	no change	0.49	1.84
4	PIK3R3 (phosphoinositide-3-kinase regulatory subunit 3)	no change	no change	0.4	-0.5
5	SEC22B (SEC22 homolog B, vesicle trafficking protein)	no change	no change	0.05	1.14
6	RAET1E (retinoic acid early transcript 1E)	no change	no change	0.18	-0.36
7	GNAT2 (G protein subunit alpha transducin 2)	no change	no change	0.64	1.9
8	EIF5A (eukaryotic translation initiation factor 5A)	no change	no change	-0.88	-1.16
9	ADGRD1 (adhesion G protein-coupled receptor D1)	no change	no change	1.03	0.87
10	SULT1C4 (sulfotransferase family 1C member 4)	no change	no change	1.31	-0.63
11	RABEP2 (rabaptin, RAB GTPase binding effector protein 2)	no change	no change	-0.1	3.27
12	TMEM164 (transmembrane protein 164)	no change	no change	-1.23	4.1
13	MYH1 (myosin heavy chain 1)	no change	no change	0.7	0.83
14	TUBB6 (tubulin beta 6 class V)	no change	no change	-0.02	1.44
15	PLPP2 (phospholipid phosphatase 2)	no change	no change	-2.27	-0.8
16	OR2A2 (olfactory receptor family 2 subfamily A member 2)	no change	no change	-1.88	1.23
17	SHF (Src homology 2 domain containing F)	no change	no change	-1.88	1.75
18	FFAR3 (free fatty acid receptor 3)	no change	no change	-2.87	3.38
19	CEP85L (centrosomal protein 85L)	no change	no change	0.32	-0.22
20	NDUFAF6 (NADH:ubiquinone oxidoreductase complex assembly factor 6)	no change	no change	1.22	-0.37
21	ASTE1 (asteroid structure-specific endonuclease 1)	no change	no change	-1.5	0.94
22	GIGYF2 (GRB10 interacting GYF protein 2)	no change	no change	-1.24	0.1
23	EED (embryonic ectoderm development)	no change	no change	-1.15	1.67
24	SLC25A4	no change	no change	0.4	-0.92
25	OR1J1 (olfactory receptor family 1 subfamily J member 1)	no change	no change	0.29	-0.79
26	SACK1B (scaffolding CK1 anchoring protein B)	no change	no change	1.27	-0.33
27	FKBP10 (FKBP prolyl isomerase 10)	no change	no change	-1	-0.18
28	PCDHGA12 (protocadherin gamma subfamily A, 12)	no change	no change	0.56	-0.24
29	CCDC24 (coiled-coil domain containing 24)	no change	no change	-0.28	0.96
30	C1orf54 (chromosome 1 open reading frame 54)	no change	no change	-0.73	-0.34
31	DDX42 (DEAD-box helicase 42)	no change	no change	-4.11	1.34
32	LAMC2 (laminin subunit gamma 2)	no change	no change	0.06	-0.24
33	UGT3A1 (UDP glycosyltransferase family 3 member A1)	no change	no change	-0.11	-0.78
34	LY75 (lymphocyte antigen 75)	no change	no change	0.74	-0.61
35	PRKAA1 (protein kinase AMP-activated catalytic subunit alpha 1)	no change	no change	0.86	-0.3
36	SPDYE1 (speedy/RINGO cell cycle regulator family member E1)	no change	no change	-0.32	-0.22
37	CLCNKB (chloride voltage-gated channel Kb)	no change	no change	-0.48	-0.74
38	GTF2H4 (general transcription factor IIH subunit 4)	no change	no change	-0.34	-0.24
39	PRPS1L1 (phosphoribosyl pyrophosphate synthetase 1 like 1)	no change	no change	0.43	-0.36
40	RAB30 (RAB30, member RAS oncogene family)	no change	no change	1.22	-0.63
41	NEDD9	no change	no change	0.92	0.46
42	SLC2A2	no change	no change	-0.87	-1.6
43	SMOC2 (SPARC related modular calcium binding 2)	no change	no change	-0.76	0.3
44	SEC14L4 (SEC14 like lipid binding 4)	no change	no change	-1.6	1.02
45	RPS23 (ribosomal protein S23)	no change	no change	-4.19	-1.26
46	CNPPD1 (cyclin Pas1/PHO80 domain containing 1)	no change	no change	0.02	0
47	EDC4 (enhancer of mRNA decapping 4)	no change	no change	-1.44	1.1
48	HNRNPA1L2 (heterogeneous nuclear ribonucleoprotein A1 like 2)	no change	no change	1.02	-0.24
49	EFCC1 (EF-hand and coiled-coil domain containing 1)	no change	no change	-1.45	-1.57
50	GC (GC vitamin D binding protein)	no change	no change	0.09	1.03
51	FAAH2 (fatty acid amide hydrolase 2)	no change	no change	0.37	-0.98
52	UBA6 (ubiquitin like modifier activating enzyme 6)	no change	no change	-0.66	0.57
53	CDH20 (cadherin 20)	no change	no change	-0.2	0.24
54	TMEM196 (transmembrane protein 196)	no change	no change	0.64	-0.34
55	MSC (musculin)	no change	no change	-0.06	0.38
56	CD300LB (CD300 molecule like family member b)	no change	no change	1.45	1.25
57	CYS1 (cystin 1)	no change	no change	0.06	-0.95

Copied from above (5 entries):
no.	gene	viability hit class	caspase hit class	viability robust z-score	caspase robust z-score
40	RAB30 (RAB30, member RAS oncogene family)	no change	no change	1.22	-0.63
41	NEDD9	no change	no change	0.92	0.46
42	SLC2A2	no change	no change	-0.87	-1.6
43	SMOC2 (SPARC related modular calcium binding 2)	no change	no change	-0.76	0.3
44	SEC14L4 (SEC14 like lipid binding 4)	no change	no change	-1.6	1.02
